Test results as given in US7186803B2, “Human vanilloid receptor VR3 protein” (Ortho-McNeil Pharmaceutical, Inc., priority 2000, dated 2007).
For at least one compound, name, drawing or mass did not settle the structure.

By UniProt entry, the sequences of proteins in these tests, tags left out. Chains listed by the source or under a name are the forms on record and can include a tag or linker.
UniProt Q9HBA0, with tags, fused parts or gaps DEL384-443/F526I: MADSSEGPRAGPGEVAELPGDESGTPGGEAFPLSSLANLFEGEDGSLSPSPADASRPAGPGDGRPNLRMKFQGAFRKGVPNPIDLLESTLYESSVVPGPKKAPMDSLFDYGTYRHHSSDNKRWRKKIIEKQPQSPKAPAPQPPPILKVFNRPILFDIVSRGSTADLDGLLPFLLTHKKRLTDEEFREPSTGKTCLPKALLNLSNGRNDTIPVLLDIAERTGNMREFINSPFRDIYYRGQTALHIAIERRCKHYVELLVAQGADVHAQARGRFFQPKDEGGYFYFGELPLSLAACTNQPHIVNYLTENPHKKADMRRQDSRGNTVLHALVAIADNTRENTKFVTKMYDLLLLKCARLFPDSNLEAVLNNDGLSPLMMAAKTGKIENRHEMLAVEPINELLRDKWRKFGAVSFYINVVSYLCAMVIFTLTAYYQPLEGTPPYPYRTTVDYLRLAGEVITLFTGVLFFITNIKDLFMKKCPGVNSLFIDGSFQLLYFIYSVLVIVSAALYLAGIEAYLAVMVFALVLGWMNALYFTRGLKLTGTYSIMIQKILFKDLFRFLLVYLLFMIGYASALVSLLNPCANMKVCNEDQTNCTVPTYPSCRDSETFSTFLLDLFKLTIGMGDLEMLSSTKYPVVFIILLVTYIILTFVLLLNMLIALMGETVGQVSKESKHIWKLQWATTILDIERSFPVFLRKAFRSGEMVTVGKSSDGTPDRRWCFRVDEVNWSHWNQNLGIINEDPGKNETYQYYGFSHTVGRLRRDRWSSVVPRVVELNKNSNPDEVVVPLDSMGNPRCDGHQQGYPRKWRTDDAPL
UniProt Q9HBA0, with tags, fused parts or gaps: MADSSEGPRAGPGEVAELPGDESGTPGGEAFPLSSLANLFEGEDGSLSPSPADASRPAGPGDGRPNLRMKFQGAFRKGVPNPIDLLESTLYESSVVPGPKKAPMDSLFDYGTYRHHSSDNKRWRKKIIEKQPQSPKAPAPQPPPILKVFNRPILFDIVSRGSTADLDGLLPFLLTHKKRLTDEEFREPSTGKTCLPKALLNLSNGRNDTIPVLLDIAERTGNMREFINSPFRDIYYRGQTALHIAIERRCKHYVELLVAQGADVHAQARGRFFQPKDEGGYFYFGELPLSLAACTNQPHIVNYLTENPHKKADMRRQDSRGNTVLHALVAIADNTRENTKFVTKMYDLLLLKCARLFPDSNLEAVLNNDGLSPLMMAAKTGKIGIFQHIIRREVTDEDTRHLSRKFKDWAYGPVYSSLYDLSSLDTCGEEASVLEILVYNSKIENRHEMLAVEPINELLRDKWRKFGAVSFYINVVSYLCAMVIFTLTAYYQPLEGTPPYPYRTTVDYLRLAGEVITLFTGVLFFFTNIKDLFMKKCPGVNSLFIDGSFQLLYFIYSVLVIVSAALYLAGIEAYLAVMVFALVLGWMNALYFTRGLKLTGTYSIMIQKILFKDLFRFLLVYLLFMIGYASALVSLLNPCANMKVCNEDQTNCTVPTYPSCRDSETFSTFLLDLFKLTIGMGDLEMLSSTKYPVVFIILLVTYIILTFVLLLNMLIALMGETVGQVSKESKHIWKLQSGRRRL
UniProt Q9HBA0, whole entry F526I: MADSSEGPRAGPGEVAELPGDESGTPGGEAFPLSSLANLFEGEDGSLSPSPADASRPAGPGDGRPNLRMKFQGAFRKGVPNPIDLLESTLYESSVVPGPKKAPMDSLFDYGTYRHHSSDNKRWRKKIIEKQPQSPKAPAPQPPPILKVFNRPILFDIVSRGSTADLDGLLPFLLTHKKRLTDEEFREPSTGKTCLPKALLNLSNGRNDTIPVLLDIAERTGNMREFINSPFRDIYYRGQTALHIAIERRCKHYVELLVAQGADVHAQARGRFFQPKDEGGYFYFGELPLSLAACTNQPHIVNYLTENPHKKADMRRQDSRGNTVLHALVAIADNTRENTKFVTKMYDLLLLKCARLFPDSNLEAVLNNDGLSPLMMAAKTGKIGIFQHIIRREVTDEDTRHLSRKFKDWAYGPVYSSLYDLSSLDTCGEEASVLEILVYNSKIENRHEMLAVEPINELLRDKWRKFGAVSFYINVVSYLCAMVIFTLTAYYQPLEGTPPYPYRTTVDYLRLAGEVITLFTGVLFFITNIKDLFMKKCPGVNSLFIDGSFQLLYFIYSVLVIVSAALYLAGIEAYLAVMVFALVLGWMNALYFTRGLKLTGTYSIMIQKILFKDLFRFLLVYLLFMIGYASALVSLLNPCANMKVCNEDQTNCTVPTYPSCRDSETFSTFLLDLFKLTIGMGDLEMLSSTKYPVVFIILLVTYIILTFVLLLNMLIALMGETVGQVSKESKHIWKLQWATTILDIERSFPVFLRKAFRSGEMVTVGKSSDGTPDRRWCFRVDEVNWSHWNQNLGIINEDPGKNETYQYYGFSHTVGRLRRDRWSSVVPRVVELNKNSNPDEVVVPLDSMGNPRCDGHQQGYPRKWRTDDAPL

Experiments:
Assay type in all cases: cell-based
[1] = molecular target: T1, human VR3 A−B− (Homo sapiens, UniProt Q9HBA0, DEL384-443/F526I); experiment: Two-electrode voltage clamp of Xenopus oocytes injected with VR3 A−B− cRNA, challenged with ligands; details: 10 uM; VR3 A−B− 1.5 ng injected per oocyte
T1 construct: expressed in transfected cells; host or cells: Xenopus laevis oocytes injected with in vitro transcribed cRNA
Method: When approximately 50% of the follicular layers were removed, Stage V and VI oocytes were selected and rinsed in media consisting of 75% OR-2 and 25% ND-96. The ND-96 contained: 100 mM NaCl, 2 mM KCl, 1 mM MgCl2, 1.8 mM CaCl2, 5 mM HEPES, 2.5 mM Na pyruvate, gentamicin (50 ug/ml), adjusted to pH 7.0 with NaOH.
Oocytes were injected with 50 nl of the human VR3 receptor RNA (0.3–5 ng) with or without co-injection of VR1 (2–3 ng). Control oocytes were injected with 50 nl of water. Oocytes were incubated for 1–13 days in ND-96 before analysis for expression of the human VR3. Incubations and collagenase digestion were carried out at room temperature. Injected oocytes were maintained in 48 well cell culture clusters (Costar; Cambridge, Mass.) at 18° C. […] The microelectrodes were filled with 3 M KCl, which had resistances of 1 and 2 MΩ. Cells were continuously perfused with ND96 at ˜10 ml/min at room temperature unless indicated. Membrane voltage was clamped at −70 mV unless indicated.

[2] = molecular target: T2, human VR3 A+B+ (Homo sapiens, UniProt Q9HBA0); experiment: Two-electrode voltage clamp of Xenopus oocytes injected with VR3 A+B+ cRNA, challenged with ligands; set-up: key: NE: no effect; details: 10 uM; VR3 A+B+ 5 ng injected per oocyte
T2 construct: expressed in transfected cells; host or cells: Xenopus laevis oocytes injected with in vitro transcribed cRNA
Method: (§1) Xenopus laevis oocytes were prepared and injected using standard methods previously described and known in the art (Fraser et al., 1993). Ovarian lobes from adult female Xenopus laevis (Nasco, Fort Atkinson, Wis.) were teased apart, rinsed several times in nominally Ca-free saline containing: 82.5 mM NaCl, 2.5 mM KCl, 1 mM MgCl2, 5 mM HEPES, adjusted to pH 7.0 with NaOH (OR-2), and gently shaken in OR-2 containing 0.2% collagenase Type 1 (ICN Biomedicals, Aurora, Ohio) for 2–5 hours. When approximately 50% of the follicular layers were removed, Stage V and VI oocytes were selected and rinsed in media consisting of 75% OR-2 and 25% ND-96. The ND-96 contained: 100 mM NaCl, 2 mM KCl, 1 mM MgCl2, 1.8 mM CaCl2, 5 mM HEPES, 2.5 mM Na pyruvate, gentamicin (50 ug/ml), adjusted to pH 7.0 with NaOH. […]
(§2) Oocytes were injected with 50 nl of the human VR3 receptor RNA (0.3–5 ng) with or without co-injection of VR1 (2–3 ng). […] Whole cell agonist-induced currents were measured 1–14 days after injection with a conventional two-electrode voltage clamp (GeneClamp500, Axon Instruments, Foster City, Calif.) using standard methods previously described and known in the art (Dascal, 1987). […]

[3] = molecular target: T3, human VR3 A+B− (Homo sapiens, UniProt Q9HBA0, F526I); experiment: Two-electrode voltage clamp of Xenopus oocytes injected with VR3 A+B− cRNA, challenged with ligands; set-up: key: NE: no effect; details: 10 uM; VR3 A+B− 3.25–4 ng injected per oocyte (also 0.4 ng)
T3 construct: expressed in transfected cells; host or cells: Xenopus laevis oocytes injected with in vitro transcribed cRNA
Method: as §1, §2

O=C(/C=C/C=C/c1ccc2c(c1)OCO2)N1CCCCC1 [Piperine]
Effect of stimulus on membrane conductance vs control oocytes [1]: NE: n = 3 | Effect of stimulus on membrane conductance vs control oocytes [2]: NE: n = 3 | Effect of stimulus on membrane conductance vs control oocytes [3]: NE: n = 3 (n = 1 0.4 ng)
